The values below come from the supplement of paper PMC12542422.

Counter-ions that a name gives are not always drawn. ± gives the standard deviation of the averaged measurements. The list shows a part of the results. Values are raw readings; no control value is given beside them.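 HeLa cells imaged for ribosome-assembly readouts (ENP1 staining with or without export block, or inducible tagged ribosomal protein reporters); machine learning classified each cell's signal location against solvent (DMSO) controls. Hits exceeded the DMSO false-positive mean by five standard deviations, then were visually confirmed; three biological replicates.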

The test system of this test is HeLa K (ENP1 immunofluorescence, no LMB). Description: fraction of cells with nucleolar or nucleolar/nucleoplasmic ENP1 signal (MainHitrate); higher = more cells with nucleolar/nuclear readout signal (for ENP1 -LMB: less RNAPI inhibition; for +LMB ENP1 and RP reporters: stronger nuclear/nucleolar retention, i.e. ribosome biogenesis defect). The settings on record: concentration: 1 µM; treatment time: 6 h; ENP1 -LMB; leptomycin B: none.
In turn, `C#CCN[C@@H]1CCc2ccccc21` [Rasagiline mesylate] displayed a fraction of 0.992 ± 0.013. In turn, `CN1CCC(=C2c3ccccc3CCc3sccc32)CC1` [Pizotifen malate] came in with a fraction of 0.9981 ± 0.0033. To `Cc1cc2c(s1)Nc1ccccc1N=C2N1CCN(C)CC1` [Olanzapine (Zyprexa)] belongs 0.992 ± 0.013. To `NC(=O)c1ncn([C@@H]2O[C@H](CO)[C@@H](O)[C@H]2O)c1N` [Acadesine] belongs 0.9974 ± 0.0045; to `COC(=O)/C=C/C(=O)OC` [Dimethyl Fumarate], 0.989 ± 0.019; to `COc1ccc2cc1Oc1ccc(cc1)C[C@H]1c3c(cc4c(c3Oc3cc5c(cc3OC)CCN(C)[C@@H]5C2)OCO4)CCN1C` [Cepharanthine], 0.9965 ± 0.0061. The compound `Cc1ccc(Nc2nccc(N(C)c3ccc4c(C)n(C)nc4c3)n2)cc1S(N)(=O)=O` [Pazopanib] showed a fraction of 0.978 ± 0.038. To `Cc1nnc(C(C)C)n1C1C[C@H]2CC[C@@H](C1)N2CC[C@H](NC(=O)C1CCC(F)(F)CC1)c1ccccc1` (stereo in doubt) [Maraviroc] belongs 0.9946 ± 0.0094; to `O=C([O-])C(O)[C@H](O)[C@@H](O)[C@H](O)[C@H](O)CO.O=C([O-])C(O)[C@H](O)[C@@H](O)[C@H](O)[C@H](O)CO.[Ca+2]` (some centres not stated) [Calcium Gluceptate], 0.9963 ± 0.0063; to `CC(C)OC(=O)C(C(=O)OC(C)C)=C1SC=CS1` [Malotilate], 0.9982 ± 0.0031. `CN(Cc1cnc2nc(N)nc(N)c2n1)c1ccc(C(=O)N[C@@H](CCC(=O)O)C(=O)O)cc1` [Abitrexate (Methotrexate)]: the fraction is 0.9979 ± 0.0036. For `CC(=O)OCC(=O)[C@@]1(O)[C@H](C)C[C@H]2[C@@H]3CCC4=CC(=O)C=C[C@]4(C)[C@@]3(F)[C@@H](O)C[C@@]21C` [Dexamethasone acetate], the fraction was 0.985 ± 0.026.
